Data: PubChem BioAssay AID2685 (National Center for Advancing Translational Sciences (NCATS), 2010)
The list shows a part of the results. These are further read-outs of the screen, such as a control signal, another cell line or another target. No call is given for them. Compounds called inactive in the main read-out are mostly missing here. Potencies come from curve fits of mixed quality, noted in brackets.

Assay: qHTS Assay for Lipid Storage Modulators in Drosophila S3 Cells;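 on cell number change: cells counted by Cell Tracker Red CMTPX staining in the red channel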
Details: BODIPY lipid droplet fluorescence, 18-24 h; for cell number change: measured here: cell count max response, cells fed with added oleic acid
In short: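 Laser-scanning cytometry quantifies lipid droplet accumulation (500–530 nm total intensity; droplet/cell object ratio) in oleic acid-fed (400 uM added) Drosophila S3 cells treated with a concentration series. 20 uM Triacsin C defined 100% inhibition.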

[1] = measured here: cell number channel AC50, cells fed with added oleic acid
[2] = measured here: lipid fluorescence (Fed channel) AC50, cells fed with added oleic acid

Row | SMILES | cell number change | AC50 [1] | AC50 [2]
1 | COc1ccc(CN(C)C(C)C(=O)Nc2ccc(S(=O)(=O)N3CCCC3)cc2)c(OC)c1OC (stereo not drawn) | 36.6% | 2910 nM [rising, full curve] | 
2 | COc1cc(NC(=O)CS(=O)(=O)c2ccc(C)cc2)cc(OC)c1OC | 13.3% |  | 29100 nM [rising, single point]
3 | COc1cc(OC)cc(C(=O)NC(C(=O)Nc2ccc(N3CCOCC3)cc2)C(C)C)c1 (stereo not drawn) | -12.4% |  | 
4 | Cc1ccc(/C=C/S(=O)(=O)NCCC(=O)NCc2ccc(F)cc2)cc1 |  |  | 14600 nM [falling, partial curve]
5 | COc1cccc(CN(C)C(=O)c2cccc(S(=O)(=O)N3CCN(Cc4ccccc4)CC3)c2)c1OC |  | 1640 nM [rising, partial curve] | 
6 | O=C1NCCCN1Cc1ccc(F)cc1 |  |  | 18400 nM [falling, partial curve]
7 | Cc1ccc(C(C)C)c(OCC(=O)NNC(=O)C(C(C)C)N2C(=O)c3ccccc3C2=O)c1 (stereo not drawn) |  |  | 14600 nM [falling, partial curve]
8 | O=C(N/N=C/c1ccco1)C(O)c1ccccc1 (stereo not drawn) | -37.1% | 164 nM [falling, full curve] | 206 nM [falling, full curve]
9 | CN(C(=O)c1ccc(-c2nn(C)c(=O)c3ccccc23)cc1)c1ccccc1 | 45.3% | 580 nM [rising, full curve] | 2310 nM [rising, partial curve]
10 | O=C(CSc1nncn1-c1ccccc1)Nc1ccc(N2CCOCC2)cc1 | -14.3% | 1300 nM [rising, full curve, poor fit] | 
11 | COc1ccc(CNc2nc3nc4c(c(=O)n3[nH]2)CCC4)cc1 | 35.9% | 16400 nM [rising, single point] | 
12 | CC(C(=O)c1ccc(Br)cc1)[n+]1cccc(NC(=O)c2ccccc2)c1 (stereo not drawn) | -60.1% | 3660 nM [rising, partial curve] | 2910 nM [rising, partial curve]
13 | CNc1oc(Cc2ccccc2)nc1S(=O)(=O)c1ccccc1 | 2.25% |  | 
14 | O=C(CC1SCCNC1=O)Nc1cccc(C(F)(F)F)c1 (stereo not drawn) | 1.36% |  | 
15 | Cc1ccc(N2CCN(/N=C/c3cccnc3)CC2)cc1 | 59.9% | 14600 nM [rising, single point] | 
16 | CCCCc1ccc(NC2=NCC(=O)N2CCc2ccccc2)cc1 | 18.8% |  | 103 nM [rising, full curve]
17 | CCN(Cc1ccccc1)c1ccc(/C=N/NS(=O)(=O)c2cccc([N+](=O)[O-])c2)cc1 | -23.3% | 4.11 nM [falling, full curve, poor fit] | 6.51 nM [falling, full curve, poor fit]
18 | O=P(CCO)(c1ccccc1)c1ccccc1 | 0.735% |  | 
19 | COc1ccccc1NC(=O)N1CCCC(c2nc3c(nnn3Cc3ccc(C)cc3)c(=O)[nH]2)C1 (stereo not drawn) | -31.5% | 11600 nM [falling, partial curve] | 5.8 nM [rising, full curve, poor fit]

Structures above that contain fluorine, in the order listed:
Row | SMILES | cell number change | AC50 [1] | AC50 [2]
4 | Cc1ccc(/C=C/S(=O)(=O)NCCC(=O)NCc2ccc(F)cc2)cc1 |  |  | 14600 nM [falling, partial curve]
6 | O=C1NCCCN1Cc1ccc(F)cc1 |  |  | 18400 nM [falling, partial curve]
14 | O=C(CC1SCCNC1=O)Nc1cccc(C(F)(F)F)c1 (stereo not drawn) | 1.36% |  | 

Copied from above, nos. 6–7
Row | SMILES | cell number change | AC50 [1] | AC50 [2]
6 | O=C1NCCCN1Cc1ccc(F)cc1 |  |  | 18400 nM [falling, partial curve]
7 | Cc1ccc(C(C)C)c(OCC(=O)NNC(=O)C(C(C)C)N2C(=O)c3ccccc3C2=O)c1 (stereo not drawn) |  |  | 14600 nM [falling, partial curve]

Next part

Row | SMILES | cell number change | AC50 [1] | AC50 [2]
20 | Cc1ccc(C)c(CNS(=O)(=O)c2ccc3c(c2)C(C)(C)C(=O)N3C)c1 | -34.6% | 10300 nM [falling, partial curve, poor fit] | 
21 | O=C(NC12CC3CC(CC(C3)C1)C2)c1cc(F)c(F)c(F)c1F | 51.4% | 29100 nM [rising, single point] | 29100 nM [rising, single point]
22 | CCOC(=O)c1c(NC(=O)/C=C/c2ccc(C)o2)sc(C)c1C | -12.6% |  | 259 nM [rising, full curve, poor fit]
23 | CC(=O)Oc1ccc(C(=O)N2c3ccccc3NC(=O)C2C)cc1 (stereo not drawn) | 38.7% | 29100 nM [rising, single point] | 
24 | N=c1c2ccccc2nnn1-c1cccc(C(F)(F)F)c1 | -32.8% | 6510 nM [falling, single point] | 6510 nM [falling, single point]
25 | CN(C)S(=O)(=O)c1ccc(N2CCOCC2)c(C(=O)NCc2ccc3c(c2)OCO3)c1 | 2.57% |  | 25900 nM [rising, partial curve]
26 | CCOc1ccc(C(=O)OCCN(CC)CC)cc1 | -53.1% | 164 nM [falling, full curve] | 517 nM [falling, full curve]
27 | CN(C)S(=O)(=O)c1ccc2c(c1)nc(CCC(=O)Nc1ccc(N3CCOCC3)cc1)n2C | -2.77% | 116 nM [falling, full curve] | 103 nM [falling, full curve, poor fit]
28 | CCCOC(=O)C1=C(C)NC2=C(C(=O)C(C(=O)OC)C(C)C2)C1c1ccc(N(CC)CC)cc1 (stereo not drawn) | -26.8% |  | 164 nM [falling, partial curve, poor fit]
29 | CC(NC(=O)C1CCCN1S(=O)(=O)c1cccc2nsnc12)c1ccccc1 (stereo not drawn) | 26.8% |  | 6510 nM [falling, single point]
30 | C=CCN1C(=O)c2ccc(C(=O)NCCc3ccc(OC)c(OC)c3)cc2C1=O | 30.2% | 1840 nM [rising, single point] | 
31 | CCOC(=O)N1CCC(NC(=O)Cn2cc3c(n2)CCCC3)CC1 | -40.1% | 6510 nM [falling, partial curve, poor fit] | 2910 nM [falling, full curve]
32 | CCOC(=O)c1c(-c2ccccc2)c2cc(OC)ccc2n1CCCN(C)C | 3.37% |  | 3260 nM [rising, partial curve]
33 | COC(=O)c1cc(C(=O)OC)cc(S(=O)(=O)Nc2ccc(Cl)c(N)c2)c1 | -35.2% | 1160 nM [falling, full curve, poor fit] | 
34 | CCOC(=O)c1c(-c2ccc(OC)cc2)cn2ccccc12 | 0.469% |  | 116 nM [rising, full curve, poor fit]
35 | NC1=NC(c2ccc(Cl)cc2)n2c(nc3ccccc32)N1 (stereo not drawn) | -72% | 23100 nM [falling, partial curve] | 
36 | Cc1c(NC(=O)C(C)OC(=O)c2ccc(Br)o2)c(=O)n(-c2ccccc2)n1C (stereo not drawn) | -5.62% | 580 nM [rising, single point] | 
37 | COc1cc(C=O)c(Cl)cc1OCC(N)=O | -44% |  | 6510 nM [falling, single point]
38 | CCN(CC)CCOC(=O)C1c2ccccc2Oc2ccccc21 | -1.76% | 1460 nM [rising, single point] | 2310 nM [rising, partial curve, poor fit]

Row | SMILES | cell number change | AC50 [1] | AC50 [2]
39 | Cn1ncc(Br)c1C(=O)N1CCc2ccccc21 |  | 4110 nM [falling, single point] | 2310 nM [falling, partial curve]
40 | COc1ccc(NS(=O)(=O)c2ccc(Cl)s2)cn1 | -13.7% |  | 4110 nM [falling, full curve, poor fit]
41 | O=C(CSC1=NCCS1)NC(NC(=O)CSC1=NCCS1)c1ccccc1 |  |  | 116 nM [falling, full curve, poor fit]
42 | CCCCCn1c(=O)[nH]c2cc(C(=O)NCCCN3CCCCC3CC)ccc2c1=O (stereo not drawn) | 11.3% |  | 29100 nM [rising, single point]
43 | CN(C)c1ccc(CN(CC2CCCO2)C(=O)c2cccs2)cc1 (stereo not drawn) | -36.6% | 25900 nM [falling, partial curve] | 
44 | Cc1ccc(C(=O)NCCN2CCOCC2)cc1Cl | 2.01% |  | 366 nM [rising, full curve]
45 | Cc1ccc2c(c1)cc1c(=O)n(CC(=O)N(C)c3ccccc3)nc(C)n12 | 23.1% |  | 6510 nM [rising, single point]
46 | C(=N\Nc1nc2ccccc2s1)/c1ccccn1 | -27.9% |  | 32600 nM [falling, single point]
47 | O=C(NN1CCOCC1)c1ccccc1F | 19.2% |  | 
48 | O=S(=O)(c1ccc(NC(=S)NN=C(C2CC2)C2CC2)cc1)N1CCOCC1 | 34.6% | 58 nM [rising, full curve, poor fit] | 29100 nM [rising, partial curve, poor fit]
49 | Cc1c(-c2ccccc2Cl)nc2ccccc2c1C(=O)O | 1.98% | 731 nM [rising, full curve] | 116 nM [rising, full curve, poor fit]
50 | COc1cccc(NC(=O)CNC(=O)Cn2cnc3sc4c(c3c2=O)CCCC4)c1 | 18.1% |  | 
51 | Cn1cc(C(=O)c2ccc(Cl)cc2)cc1-c1nc2ccccc2n1C | -5.52% |  | 4.61 nM [rising, full curve, poor fit]
52 | CCc1ccc(NC(=O)COC(=O)CCC2CCCC2)cc1 | -7.63% |  | 8200 nM [falling, partial curve, poor fit]
53 | COC(=O)c1cccc([N+](=O)[O-])c1CN1CCCC(C(N)=O)C1 (stereo not drawn) | 11% |  | 731 nM [rising, single point]
54 | COc1ccc(N(C(=O)c2ccncc2)S(=O)(=O)c2ccc(F)cc2)cc1 | 41.9% | 29100 nM [rising, single point] | 23100 nM [rising, partial curve]
55 | NC(=O)c1cc(-c2ccccc2)nc(Oc2ccccc2)n1 | 40.3% | 7310 nM [rising, single point] | 
56 | Cn1c(=O)[nH]c(=O)c2c1nc(NC1CCCCC1)n2Cc1ccccc1 | 28% | 2060 nM [rising, full curve, poor fit] | 2910 nM [rising, full curve]
57 | CSCCC(NS(=O)(=O)c1ccccc1)C(=O)OCc1cc(=O)oc2cc(O)ccc12 (stereo not drawn) |  | 580 nM [falling, single point] | 146 nM [falling, full curve, poor fit]
